Our source for the log2 fold change values is the supplement of paper PMC10849652.

Amino acid sequences for entries named in this document (tags omitted). A change or cut given only in a name is not applied to a line headed by its entry.
UniProt P00492: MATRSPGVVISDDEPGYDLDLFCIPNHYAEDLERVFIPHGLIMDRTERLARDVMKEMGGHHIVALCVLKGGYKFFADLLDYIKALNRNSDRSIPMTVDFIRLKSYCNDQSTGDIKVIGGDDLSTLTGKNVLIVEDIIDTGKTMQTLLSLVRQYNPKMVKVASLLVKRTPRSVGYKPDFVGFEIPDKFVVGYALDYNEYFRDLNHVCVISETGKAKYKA
UniProt Q5SSJ5: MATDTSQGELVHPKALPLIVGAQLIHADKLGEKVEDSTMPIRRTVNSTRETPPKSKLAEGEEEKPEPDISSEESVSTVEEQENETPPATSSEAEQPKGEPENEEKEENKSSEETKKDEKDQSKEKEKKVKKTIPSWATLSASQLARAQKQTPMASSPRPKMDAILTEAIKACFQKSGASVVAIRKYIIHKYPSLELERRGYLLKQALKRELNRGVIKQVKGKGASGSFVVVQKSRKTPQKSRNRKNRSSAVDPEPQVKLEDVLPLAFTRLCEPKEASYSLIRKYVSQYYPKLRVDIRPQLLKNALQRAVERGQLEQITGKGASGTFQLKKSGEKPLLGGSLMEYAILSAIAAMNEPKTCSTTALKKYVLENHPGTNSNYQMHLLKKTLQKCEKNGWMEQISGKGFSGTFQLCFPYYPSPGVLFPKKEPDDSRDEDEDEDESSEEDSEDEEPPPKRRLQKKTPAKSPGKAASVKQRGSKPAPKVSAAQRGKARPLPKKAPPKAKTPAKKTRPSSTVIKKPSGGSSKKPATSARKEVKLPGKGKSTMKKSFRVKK
UniProt P04035: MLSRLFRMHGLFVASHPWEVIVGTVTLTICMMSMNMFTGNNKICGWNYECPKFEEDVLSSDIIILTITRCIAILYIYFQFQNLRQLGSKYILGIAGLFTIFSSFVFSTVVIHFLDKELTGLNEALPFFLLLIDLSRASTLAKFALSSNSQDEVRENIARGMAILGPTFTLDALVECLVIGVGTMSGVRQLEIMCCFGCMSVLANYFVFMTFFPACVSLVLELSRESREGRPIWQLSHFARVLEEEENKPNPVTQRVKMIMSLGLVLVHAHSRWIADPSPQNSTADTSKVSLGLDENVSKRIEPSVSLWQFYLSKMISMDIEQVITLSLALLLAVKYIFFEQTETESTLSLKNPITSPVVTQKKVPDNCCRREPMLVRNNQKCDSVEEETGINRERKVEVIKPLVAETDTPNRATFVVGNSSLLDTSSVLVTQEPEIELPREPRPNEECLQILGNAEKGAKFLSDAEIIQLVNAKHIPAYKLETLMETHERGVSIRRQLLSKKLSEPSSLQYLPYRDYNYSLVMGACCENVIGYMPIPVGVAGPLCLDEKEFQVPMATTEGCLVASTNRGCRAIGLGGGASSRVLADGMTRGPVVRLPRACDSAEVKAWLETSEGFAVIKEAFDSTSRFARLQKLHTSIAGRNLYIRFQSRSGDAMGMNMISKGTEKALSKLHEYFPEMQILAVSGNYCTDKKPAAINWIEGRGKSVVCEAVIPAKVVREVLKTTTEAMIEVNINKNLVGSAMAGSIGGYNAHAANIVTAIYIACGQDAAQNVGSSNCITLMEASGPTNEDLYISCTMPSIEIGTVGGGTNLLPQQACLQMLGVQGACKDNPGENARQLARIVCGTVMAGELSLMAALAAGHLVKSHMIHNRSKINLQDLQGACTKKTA
UniProt Q86VS8: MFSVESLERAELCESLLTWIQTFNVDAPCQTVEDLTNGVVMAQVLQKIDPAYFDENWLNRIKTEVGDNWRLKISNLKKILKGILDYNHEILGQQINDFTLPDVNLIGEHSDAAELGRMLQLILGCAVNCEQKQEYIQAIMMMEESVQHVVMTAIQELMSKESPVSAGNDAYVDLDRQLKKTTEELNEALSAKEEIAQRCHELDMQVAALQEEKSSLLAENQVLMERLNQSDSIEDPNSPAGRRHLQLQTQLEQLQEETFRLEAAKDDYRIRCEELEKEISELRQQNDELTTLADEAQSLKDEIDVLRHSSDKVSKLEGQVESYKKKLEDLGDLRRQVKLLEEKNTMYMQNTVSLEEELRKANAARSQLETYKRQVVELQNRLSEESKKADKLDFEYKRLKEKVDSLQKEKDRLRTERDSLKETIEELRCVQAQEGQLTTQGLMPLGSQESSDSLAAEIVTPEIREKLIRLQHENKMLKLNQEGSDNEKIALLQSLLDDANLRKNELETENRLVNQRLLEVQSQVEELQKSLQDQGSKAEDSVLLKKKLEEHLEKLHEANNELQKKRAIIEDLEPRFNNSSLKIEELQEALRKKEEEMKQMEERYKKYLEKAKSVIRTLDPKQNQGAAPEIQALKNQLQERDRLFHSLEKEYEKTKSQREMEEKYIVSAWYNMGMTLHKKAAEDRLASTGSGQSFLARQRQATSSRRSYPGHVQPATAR
UniProt Q8NBQ5: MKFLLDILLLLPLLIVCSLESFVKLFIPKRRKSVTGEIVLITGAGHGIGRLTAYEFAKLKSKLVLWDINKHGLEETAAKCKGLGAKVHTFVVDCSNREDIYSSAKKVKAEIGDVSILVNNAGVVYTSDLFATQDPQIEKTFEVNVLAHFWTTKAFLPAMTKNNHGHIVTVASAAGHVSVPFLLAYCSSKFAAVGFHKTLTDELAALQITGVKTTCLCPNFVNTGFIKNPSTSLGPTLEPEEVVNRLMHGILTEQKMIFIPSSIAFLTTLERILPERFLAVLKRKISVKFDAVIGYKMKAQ
UniProt Q9NZL4: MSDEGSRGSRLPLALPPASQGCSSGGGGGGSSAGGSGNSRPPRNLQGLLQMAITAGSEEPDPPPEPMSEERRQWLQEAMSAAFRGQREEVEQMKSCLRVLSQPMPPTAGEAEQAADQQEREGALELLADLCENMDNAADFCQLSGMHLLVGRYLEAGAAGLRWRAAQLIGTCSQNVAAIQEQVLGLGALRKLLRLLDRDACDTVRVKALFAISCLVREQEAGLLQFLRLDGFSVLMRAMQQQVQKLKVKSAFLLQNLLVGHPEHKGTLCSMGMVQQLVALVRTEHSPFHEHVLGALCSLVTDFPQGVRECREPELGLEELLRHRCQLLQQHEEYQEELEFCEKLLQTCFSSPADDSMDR
UniProt O14979: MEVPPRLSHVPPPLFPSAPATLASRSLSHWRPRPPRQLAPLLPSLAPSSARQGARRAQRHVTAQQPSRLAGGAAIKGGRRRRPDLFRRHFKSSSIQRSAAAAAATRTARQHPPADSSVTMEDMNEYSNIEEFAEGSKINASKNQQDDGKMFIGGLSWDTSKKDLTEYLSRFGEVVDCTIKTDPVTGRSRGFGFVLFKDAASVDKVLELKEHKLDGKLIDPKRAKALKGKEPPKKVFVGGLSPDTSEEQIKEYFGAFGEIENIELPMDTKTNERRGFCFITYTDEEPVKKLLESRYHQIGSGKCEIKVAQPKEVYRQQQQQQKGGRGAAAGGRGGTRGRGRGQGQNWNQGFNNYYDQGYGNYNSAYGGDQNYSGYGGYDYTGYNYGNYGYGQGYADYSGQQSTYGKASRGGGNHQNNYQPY
UniProt O00291: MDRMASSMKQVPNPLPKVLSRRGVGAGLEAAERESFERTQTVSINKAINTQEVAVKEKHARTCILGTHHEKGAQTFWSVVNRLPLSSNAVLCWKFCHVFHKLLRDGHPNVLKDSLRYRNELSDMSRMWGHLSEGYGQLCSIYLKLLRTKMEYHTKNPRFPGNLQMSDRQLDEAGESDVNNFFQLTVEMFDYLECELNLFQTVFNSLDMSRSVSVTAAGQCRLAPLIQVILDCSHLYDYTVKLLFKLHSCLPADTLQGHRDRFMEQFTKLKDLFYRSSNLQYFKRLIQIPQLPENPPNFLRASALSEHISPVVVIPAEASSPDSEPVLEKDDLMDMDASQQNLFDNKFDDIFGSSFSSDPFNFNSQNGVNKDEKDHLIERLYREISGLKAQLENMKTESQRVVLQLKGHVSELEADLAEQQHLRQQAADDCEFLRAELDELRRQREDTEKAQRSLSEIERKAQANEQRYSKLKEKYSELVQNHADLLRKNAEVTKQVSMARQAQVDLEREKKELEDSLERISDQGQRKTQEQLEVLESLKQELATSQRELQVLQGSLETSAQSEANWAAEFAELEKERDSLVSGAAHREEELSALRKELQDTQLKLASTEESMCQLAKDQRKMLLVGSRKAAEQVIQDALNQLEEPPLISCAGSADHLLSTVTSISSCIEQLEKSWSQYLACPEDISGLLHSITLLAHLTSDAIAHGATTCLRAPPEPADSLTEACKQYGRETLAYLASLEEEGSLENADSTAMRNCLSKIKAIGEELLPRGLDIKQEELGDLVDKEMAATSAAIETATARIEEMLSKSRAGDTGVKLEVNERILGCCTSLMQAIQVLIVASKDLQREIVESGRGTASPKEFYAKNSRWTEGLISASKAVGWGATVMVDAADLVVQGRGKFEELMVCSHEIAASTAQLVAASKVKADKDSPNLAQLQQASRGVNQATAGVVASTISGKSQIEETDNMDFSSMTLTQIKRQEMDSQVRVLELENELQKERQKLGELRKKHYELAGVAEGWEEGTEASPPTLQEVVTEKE
UniProt Q7LGA3: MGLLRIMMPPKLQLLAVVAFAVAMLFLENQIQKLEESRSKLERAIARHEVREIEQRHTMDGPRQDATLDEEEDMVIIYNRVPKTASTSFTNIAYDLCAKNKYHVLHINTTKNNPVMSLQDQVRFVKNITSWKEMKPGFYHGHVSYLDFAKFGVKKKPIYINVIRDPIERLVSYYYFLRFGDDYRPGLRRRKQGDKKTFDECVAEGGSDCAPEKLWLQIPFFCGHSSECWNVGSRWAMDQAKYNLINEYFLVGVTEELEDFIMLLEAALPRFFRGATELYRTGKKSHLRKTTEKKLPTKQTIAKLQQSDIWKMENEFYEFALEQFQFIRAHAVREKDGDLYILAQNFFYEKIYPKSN
UniProt P31943: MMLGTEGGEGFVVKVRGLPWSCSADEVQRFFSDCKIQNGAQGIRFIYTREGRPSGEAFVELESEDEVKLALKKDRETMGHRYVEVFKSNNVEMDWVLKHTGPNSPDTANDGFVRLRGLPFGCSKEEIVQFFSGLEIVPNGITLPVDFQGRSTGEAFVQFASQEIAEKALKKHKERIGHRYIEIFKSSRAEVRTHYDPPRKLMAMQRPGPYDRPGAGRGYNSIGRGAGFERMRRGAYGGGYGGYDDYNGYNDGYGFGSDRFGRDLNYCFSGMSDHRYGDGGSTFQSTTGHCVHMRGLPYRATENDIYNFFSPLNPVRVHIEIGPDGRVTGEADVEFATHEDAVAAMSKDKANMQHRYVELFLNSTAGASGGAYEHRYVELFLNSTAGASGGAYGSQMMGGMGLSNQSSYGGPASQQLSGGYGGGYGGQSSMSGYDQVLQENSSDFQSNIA
UniProt Q9BUJ2: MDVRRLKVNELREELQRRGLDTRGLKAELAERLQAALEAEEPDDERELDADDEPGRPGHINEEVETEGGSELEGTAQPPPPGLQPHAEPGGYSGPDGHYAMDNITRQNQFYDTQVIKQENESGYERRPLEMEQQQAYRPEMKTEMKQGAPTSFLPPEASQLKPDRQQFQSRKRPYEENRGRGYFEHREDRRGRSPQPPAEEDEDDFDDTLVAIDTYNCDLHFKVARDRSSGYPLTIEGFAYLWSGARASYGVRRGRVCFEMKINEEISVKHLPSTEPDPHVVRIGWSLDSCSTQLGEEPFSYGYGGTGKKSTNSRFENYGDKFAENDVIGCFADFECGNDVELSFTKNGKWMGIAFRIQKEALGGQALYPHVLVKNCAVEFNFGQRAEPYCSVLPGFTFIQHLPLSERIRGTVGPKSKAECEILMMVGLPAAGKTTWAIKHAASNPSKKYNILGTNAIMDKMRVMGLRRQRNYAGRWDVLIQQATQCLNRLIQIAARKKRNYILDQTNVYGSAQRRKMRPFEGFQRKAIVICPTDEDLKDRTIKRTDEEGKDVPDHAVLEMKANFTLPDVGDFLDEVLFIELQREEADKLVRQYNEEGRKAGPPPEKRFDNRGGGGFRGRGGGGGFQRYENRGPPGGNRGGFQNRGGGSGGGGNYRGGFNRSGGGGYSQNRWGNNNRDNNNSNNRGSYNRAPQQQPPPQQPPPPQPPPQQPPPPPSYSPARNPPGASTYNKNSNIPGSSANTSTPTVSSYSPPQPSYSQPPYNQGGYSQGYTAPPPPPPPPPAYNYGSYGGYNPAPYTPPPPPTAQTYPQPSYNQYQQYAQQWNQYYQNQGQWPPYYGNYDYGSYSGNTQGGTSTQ
UniProt Q53T59: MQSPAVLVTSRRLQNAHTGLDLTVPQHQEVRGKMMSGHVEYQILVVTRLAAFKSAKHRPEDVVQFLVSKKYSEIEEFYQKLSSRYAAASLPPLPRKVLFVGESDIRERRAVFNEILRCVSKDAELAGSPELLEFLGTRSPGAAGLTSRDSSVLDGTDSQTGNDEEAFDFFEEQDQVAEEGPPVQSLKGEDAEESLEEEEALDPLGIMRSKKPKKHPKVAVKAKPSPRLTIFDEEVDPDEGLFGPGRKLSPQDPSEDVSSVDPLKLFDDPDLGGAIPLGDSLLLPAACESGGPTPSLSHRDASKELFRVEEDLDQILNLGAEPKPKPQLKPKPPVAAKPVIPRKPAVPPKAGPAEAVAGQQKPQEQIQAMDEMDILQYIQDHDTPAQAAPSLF

The list shows a part of the results.

Compound in the first test: Cc1sc2c(c1C)C(c1ccc(Cl)cc1)=N[C@@H](CC(=O)OC(C)(C)C)c1nnc(C)n1-2
In words: log2 fold change, soluble protein after heating vs DMSO (PISA); higher = thermal stabilisation; K562 cells, 10 uM, 30 min; active = over 0.2 and 3.5 SD of the protein, either way, in both replicates (recomputed). In outline: (§1)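 Values are thermal stability changes relative to control samples and are taken from duplicates. They are stated as log2 fold changes. Before quantification by TMTpro 16plex LC-MS/MS with equalised channel sums, K562 cells at 2×10^6 cells/mL were treated with 10 μM compound for 30 min, heated in aliquots for 3 min across 48°C-58°C, pooled, extracted in PBS with 0.5% NP-40 at 4°C, and centrifuged at 21,000xg for 90 min to give the soluble supernatant.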
As for HNRNPC isoform 2 (UniProt P07910), the log2 fold change was inactive: 0.07.
In the case of HNRNPA0 (UniProt Q13151), the log2 fold change is inactive: -0.352.
Same read-out and setting: then HNRNPA2B1 (UniProt P22626), with inactive: 0.223; and HNRNPD isoform 4 (UniProt Q14103), with inactive: 0.017.
For the target HIST2H2BF isoform 2 (UniProt Q5QNW6), the log2 fold change was inactive: -0.082.
The same measure, in the same setting: then HNRNPK isoform 2 (UniProt P61978), with inactive: -0.023; and HRAS (UniProt P01112), with inactive: 0.016.

Compound in another test: c1ccc([C@@H]2C[C@H]2NC2CCNCC2)cc1
Described as above. The procedure, abridged:
as §1
Consider IBA57 (UniProt Q5T440), for which the log2 fold change was inactive: -0.007.
Same read-out and setting: to HSPG2 (UniProt P98160) belongs inactive: 0.012; to HPRT1 (UniProt P00492), inactive: 0.012; to HP1BP3 (UniProt Q5SSJ5), inactive: 0.011.
The same measure, in the same setting: to HSPH1 (UniProt Q92598) belongs inactive: 0.013.
For HM13 isoform 2 (UniProt Q8TCT9), the log2 fold change is inactive: 0.002.
On the same count and under the same terms, to IARS (UniProt P41252) belongs inactive: 0.009; to HMGCR isoform 3 (UniProt P04035), inactive: 0.043; to HOOK3 (UniProt Q86VS8), inactive: 0.024.
Consider HSD17B11 (UniProt Q8NBQ5), for which the log2 fold change was inactive: 0.
Regarding HNRNPH3 (UniProt P31942), the log2 fold change was inactive: 0.033.
HMGN5 (UniProt Q5JSK9): the log2 fold change was inactive: 0.055.
The same measure, in the same setting: then HTRA2 (UniProt O43464), with inactive: 0.016.
On the same count and under the same terms, then HGH1 (UniProt Q9BTY7), with inactive: -0.162; and HSD17B8 (UniProt Q92506), with inactive: 0.068.
For HSPBP1 isoform 3 (UniProt Q9NZL4), the log2 fold change was inactive: -0.001.
The same measure, in the same setting: then HNRNPDL (UniProt O14979), with inactive: 0.106.
Turning to HIP1 (UniProt O00291), the log2 fold change was inactive: 0.045.
Still for that read-out and setting: then HS2ST1 (UniProt Q7LGA3), with inactive: 0.045; and HNRNPH1 (UniProt P31943), with inactive: -0.017; and HMBS (UniProt F5H226), with inactive: 0.084.
The same measure, in the same setting: then HSDL2 (UniProt Q6YN16), with inactive: -0.004; and HNRNPUL1 (UniProt Q9BUJ2), with inactive: 0.058.
Still for that read-out and setting: then HNRNPC isoform 2 (UniProt P07910), with inactive: 0.139.
On to HNRNPA0 (UniProt Q13151), for which the log2 fold change is inactive: 0.109.
On the same count and under the same terms, then HS1BP3 (UniProt Q53T59), with inactive: -0.203; and HNRNPA2B1 (UniProt P22626), with inactive: 0.048; and HNRNPD isoform 4 (UniProt Q14103), with inactive: 0.201.
Still for that read-out and setting: then HIST2H2BF isoform 2 (UniProt Q5QNW6), with inactive: 0.125; and ICE2 (UniProt Q659A1), with inactive: 0.
As for HNRNPK isoform 2 (UniProt P61978), the log2 fold change is inactive: 0.013.
On the same count and under the same terms, to HRAS (UniProt P01112) belongs inactive: 0.138.
